Primary screen of a compound library

Mtb growth Cornell: 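Whole-cell assay for inhibitors of Mycobacterium tuberculosis growth, labelled Cornell in the record; the read-out is not stated. The concentration is filed as 10 mM, unlikely as a test dose, so the dose is not known. Higher means stronger inhibition (inferred from two other growth screens of the library). Size under these conditions: about 53,000 compounds, about 900 of them at 50% or above in at least one test.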
Mtb heat-shock: 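Assay on Mycobacterium tuberculosis, filed only as a heat shock assay from Cornell; the read-out is not stated. The concentration is filed as 10 mM, unlikely as a test dose, so the dose is not known. The record gives no direction; compounds that gave an IC50 in retests scored well above the rest, so higher reads as stronger inhibition. About 69,000 compounds were tested under these conditions; 1.4% (about 930) showed 50% or more at least once.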

Each number is a percent effect as filed. How 0% and 100% were set is not recorded. Most values in the screen are low, and negative values occur. Compounds were drawn at random from those tested, without regard to their results. A dash means the value is not listed here; it may have been measured.

| # | structure | Mtb growth Cornell | Mtb heat-shock |
|---|---|---|---|
| 1 | `CN(C(=O)C1CCOCC1)[C@@H]1CCC[C@@H](N2CCOCC2)[C@@H]1O` | - | -10.17% |
| 2 | `c1cc(CNc2nnc(Cc3ccsc3)o2)cs1` | 22.99% | 6.666% |
| 3 | `Cc1ccc2ncn(CC(O)CN3CCC(C)CC3)c(=O)c2c1` (stereo not shown) | -3.906% | -39.64% |
| 4 | `Cc1cc(C)c(CNC(=O)N2CCCC2c2ccccn2)c(=O)[nH]1` (stereo not shown) | -107.6% | 1.951% |
| 5 | `c1ccc(-c2cccc(-c3ccn(CCN4CCCCC4)n3)c2)nc1` | - | -0.7012% |
| 6 | `Cn1cccc1-c1cc(C(=O)NCCc2nnc(N)s2)[nH]n1` | -2.342% | -9.481% |
| 7 | `COc1c(Br)c(CC2CC(CO)=NO2)c(OC)c2c1OCO2` (stereo not shown) | 17.52% | -39.72% |
| 8 | `CN(CC(=O)N1CCCC1c1noc(C2CC2)n1)S(C)(=O)=O` (stereo not shown) | 27.32% | 7.02% |
| 9 | `CCNC(=O)[C@@H]1C[C@@H](N)CN1Cc1ccc2cccc(Cl)c2n1` | -15.77% | -6.22% |
| 10 | `OCCOc1cc(F)ccc1NCc1ccc(F)c(F)c1` | 11.25% | -37.69% |
| 11 | `CCn1ccc(NC(=O)CCn2nc(C)c3ccccc32)n1` | 0.3576% | -10.81% |
| 12 | `Cc1ccc(NC(=O)c2n[nH]c(-n3cnnc3)n2)cc1C` | - | 13.4% |
| 13 | `[H][C@]12CN(c3nc4ccccc4s3)CC[C@@]1(O)CCN(S(=O)(=O)N(C)C)C2` | - | 5.426% |
| 14 | `Cc1ccc(OC2(C(=O)O)CCN(C/C=C/c3ccco3)CC2)cn1` | - | 20.56% |
| 15 | `Cc1cc(O)cc2c(=O)oc(CC(C)O)cc12` (stereo not shown) | 5.232% | -0.3362% |
| 16 | `COc1cccc(S(=O)(=O)CCN2CCCCC2)c1` | 18.85% | 14.49% |
| 17 | `COc1ccc(CC2(CO)CCN(c3cc(C#N)ccn3)CC2)cc1` | -8.835% | -26.63% |
| 18 | `CSCCC(=O)N1CCC(c2nnc(CN(C)CCO)n2C)CC1` | -13.51% | -12.45% |
| 19 | `CCc1cn[nH]c1C1CCN(c2cc(C)c3cccc(OC)c3n2)CC1` | 57.17% | 85.21% |
| 20 | `CCc1nn(-c2cc(Oc3cccc(C)c3)nc(C)n2)c(N)c1C#N` | 11.01% | 9.981% |
| 21 | `CCN1CCCCC1C(=O)Nc1cccc(-c2nnc[nH]2)c1` (stereo not shown) | - | 5.519% |
| 22 | `CC(Cn1cccn1)NC(=O)NCCc1cnn(C)c1` (stereo not shown) | -3.702% | 24.56% |
| 23 | `Cc1ccc(O)c(CNC2CCc3nc(C)nn3C2)n1` (stereo not shown) | 1.857% | 15.9% |
| 24 | `[H][C@@]12CCN(CC3CCC3)C[C@]1(C(=O)N1CCOCC1)CCO2` | 16.13% | -9.176% |
| 25 | `O=C(O)[C@H]1OCC(=O)N(Cc2cccc(F)c2)[C@@H]1c1ccc(Cl)cc1` | 44.43% | 2.965% |
| 26 | `O=C(O)c1cccc(CN2CCCC(c3ccn[nH]3)C2)c1` (stereo not shown) | -41.25% | -8.776% |
| 27 | `O=C(O)C(F)(F)F.O=C(O)C(F)(F)F.[H][C@@]12CN(Cc3ccsc3)CCC[C@]1(C(=O)O)CN(c1ccccn1)C2` | -21.15% | -35.58% |
| 28 | `C=C(C)COc1ccccc1CNCCc1cc(O)nc(C)n1` | 2.568% | -8.276% |
| 29 | `CC(C)CC(NC(=O)c1cc(C2CC2)n[nH]1)c1ncnn1C` (stereo not shown) | - | -20.5% |
| 30 | `CCc1noc(C(C)N2CCC(NC(=O)c3ccc(C)s3)CC2)n1` (stereo not shown) | -54.36% | -21.88% |
| 31 | `Cc1ccccc1CC(C)(C)NC(=O)c1cccc(OCC(N)=O)c1` | 20.96% | 11.68% |
| 32 | `O=C(C(CNCc1cccnc1)c1ccccc1)N1CCOCC1` (stereo not shown) | -49.19% | 7.638% |
| 33 | `CCC(=O)N1CCCC1c1nc(N(C)C)ncc1-c1ccc(Cl)cc1` (stereo not shown) | 12.21% | 0.1349% |
| 34 | `Cc1ccc(N2CCCC3(COCCN(c4ccccn4)C3)C2)nn1.O=C(O)C(F)(F)F` (stereo not shown) | 1.955% | -19.77% |
| 35 | `CC(=O)N1CCCN(C(=O)NCCOc2ccc3c(c2)CCC3)CC1` | - | 8.462% |
| 36 | `Cn1ncc2c(=O)[nH]c(CN3CCCC3c3ccccc3Cl)nc21` (stereo not shown) | - | -13.7% |
| 37 | `COCCC(=O)N1CCC2(CC1)CC(c1ccccc1)CN(C)C2` (stereo not shown) | -7.264% | 1.315% |
| 38 | `CCCC(=O)N1CCCC(Cn2cc(-c3ccc(F)cc3)nn2)C1` (stereo not shown) | - | -15.18% |
| 39 | `O=C(CN1CCCC(O)C1)NC(=O)NCc1cccs1` (stereo not shown) | -15.24% | 2.294% |
| 40 | `O=C(O)C(F)(F)F.[H][C@@]12CO[C@@H](CNC(=O)N(C)C)[C@]1([H])CCN(Cc1cccc(F)c1)C2` | 9.358% | -21.41% |
| 41 | `Cc1nnc2n1CC(CNCc1nc(-c3ccsc3)no1)CC2` (stereo not shown) | - | 24.84% |
| 42 | `CN(Cc1ncnn1C)C(=O)CCCn1ccc2cc(Cl)ccc21` | 11.08% | -0.9218% |
| 43 | `O=C1Nc2ccccc2C1C1CCN(C(=O)C2CC2)CC1` (stereo not shown) | - | -2.759% |
| 44 | `CC(CNC(=O)N1CCNC(=O)CC1)Cc1cccs1` (stereo not shown) | - | -14.07% |
| 45 | `Cc1ccc(-n2ccc3nc(N4CCCC4)ncc3c2=O)cc1C` | -13.81% | -19.49% |
| 46 | `O=C(NCC1(Sc2ccccc2)CC1)c1c[nH]nn1` | 10.77% | 4.474% |
| 47 | `NC(=O)Cn1cnc2nc3n(c2c1=O)CCC3` | -59.13% | 9.601% |
| 48 | `CCn1cc2c(n1)C(COC)CN(C(=O)COc1ccccc1)C2` (stereo not shown) | 4.61% | -4.227% |
| 49 | `Nc1nccc(C2CN(Cc3ccc(-c4ccccc4C(=O)O)o3)C2)n1` | 40.18% | 1.007% |
| 50 | `CN(CCc1ccncc1)C(=O)C1CSCN1C(=O)C1CCCC1` (stereo not shown) | -8.231% | -26.05% |
| 51 | `O=C(Nc1ccc(CCN2CCOCC2)cc1)C1CCC1` | - | -16.51% |
| 52 | `CN(C)C(=O)CNC(=O)c1ccc2ccc(N(C)CC3CC3)n2c1` | -82.75% | 51.54% |
| 53 | `Cc1cc(C)c(CNC(=O)CCC2CCCO2)c(=O)[nH]1` (stereo not shown) | - | -3.242% |
| 54 | `CN(C)c1cccc(C(=O)Nc2ccn(CCc3ccncc3)n2)c1` | - | 18.93% |
| 55 | `CC(C)(C)c1c[nH]c([C@@H]2COCCN2C2CCOCC2)n1` | -28.41% | -16.79% |
| 56 | `Cc1ccc(CNC(=O)CN2CCOC(Cn3cccn3)C2)s1` (stereo not shown) | - | -10.05% |
| 57 | `CN1CCN(Cc2c(-c3ccco3)[nH]c3ncccc23)CC1` | - | -15.99% |
| 58 | `Cc1nn(C)c(N(C)C)c1CNC(C)Cc1c(F)cccc1F` (stereo not shown) | 29.42% | 12.52% |
| 59 | `CCC(O)CN(c1ccccc1)S(=O)(=O)c1cnc(C)s1` (stereo not shown) | 13.45% | -16.87% |
| 60 | `OC(CNCCc1nnc2ccccn12)c1ccc(F)c(F)c1` (stereo not shown) | 11.84% | 10.69% |
| 61 | `COCCNc1nc(C2CCCC2)nc2c1CCNCC2` | - | 6.137% |
| 62 | `O=C(O)C(F)(F)F.O=C(O)C(F)(F)F.c1cncc(C2COC3(CCN(Cc4ccsc4)CC3)C2)c1` (stereo not shown) | - | -7.888% |
| 63 | `CC(c1cccc(-c2ccc(C(=O)O)cc2Cl)c1)N(C)C` (stereo not shown) | 27.09% | 5.025% |
| 64 | `CN(Cc1cc(C2CC2)on1)C(=O)CN1CC(c2ccccc2)CC1=O` (stereo not shown) | - | -16.89% |
| 65 | `Cc1ccccc1C(C)NC(=O)c1ccc(=O)n(C)c1` (stereo not shown) | - | 15.41% |
| 66 | `CC1CCc2sc(C(=O)Nc3cnn(C)c3)cc2C1` (stereo not shown) | - | 12.62% |
| 67 | `Cc1ncnc2c1CCN(C(=O)CN(C)C)CC2.O=C(O)C(F)(F)F` | -14.27% | -37.36% |
| 68 | `O=C(Cn1ccc(=O)[nH]c1=O)NCC1Cc2ccccc2O1` (stereo not shown) | - | -2.024% |
| 69 | `O=C(NCCc1ccc(Cl)s1)NCc1nnc2n1CCCC2` | -18.07% | -6.538% |
| 70 | `CC(C)(C)OC(=O)NC(C)(C)c1noc(CSc2ccccn2)n1` | -4.275% | 13.59% |
| 71 | `[H][C@@]12CN(CC(C)C)C[C@]1(C(=O)NCC1CC1)CCCN2c1ncccn1` | -1.708% | 6.444% |
| 72 | `COc1cccc(CN2CCCC(Nc3cccc(F)c3)C2)c1O` (stereo not shown) | -1.151% | 11.13% |
| 73 | `CCc1cc(NCCNC(C)=O)nc(N2CCCC2)n1` | -11.39% | -22.28% |
| 74 | `[H][C@@]12CS(=O)(=O)C[C@]1([H])NCCN2c1ccnc(N(C)Cc2nccs2)n1` | -16.32% | 2.288% |
| 75 | `O=C(O)C1(Cc2ccccc2Cl)CCN(c2ncnc3[nH]ccc23)CC1` | -14.37% | 1.482% |
| 76 | `Cc1noc(C2CCCN(Cn3cc(Cl)cn3)C2)n1` (stereo not shown) | - | 10.28% |
| 77 | `O=C(O)C(F)(F)F.O=C(O)C(F)(F)F.O=C(O)C(F)(F)F.[H][C@]12COC[C@H](N3CCN(C)CC3)[C@@]1([H])CN(Cc1cc(C)cc(C)c1)C2` | 8.83% | -3.372% |
| 78 | `CN(C)[C@@H]1CO[C@H](CNC(=O)c2cccs2)[C@H]1O` | - | -10.54% |
| 79 | `COCCCN1CC2(CCCCN2C(=O)c2ccsc2)CC1=O` (stereo not shown) | 4.836% | -12% |
| 80 | `CS(=O)(=O)c1nccn1CCOc1ccc(F)cc1Cl` | - | -1.142% |

The last 6 entries again:

| structure | Mtb growth Cornell | Mtb heat-shock |
|---|---|---|
| `O=C(O)C1(Cc2ccccc2Cl)CCN(c2ncnc3[nH]ccc23)CC1` | -14.37% | 1.482% |
| `Cc1noc(C2CCCN(Cn3cc(Cl)cn3)C2)n1` (stereo not shown) | - | 10.28% |
| `O=C(O)C(F)(F)F.O=C(O)C(F)(F)F.O=C(O)C(F)(F)F.[H][C@]12COC[C@H](N3CCN(C)CC3)[C@@]1([H])CN(Cc1cc(C)cc(C)c1)C2` | 8.83% | -3.372% |
| `CN(C)[C@@H]1CO[C@H](CNC(=O)c2cccs2)[C@H]1O` | - | -10.54% |
| `COCCCN1CC2(CCCCN2C(=O)c2ccsc2)CC1=O` (stereo not shown) | 4.836% | -12% |
| `CS(=O)(=O)c1nccn1CCOc1ccc(F)cc1Cl` | - | -1.142% |

Measurements from “University of Dundee, Small-Polar-MMV Screening Library” (2021), ChEMBL document CHEMBL3988442.